Laboratory results reported in paper PMC11338131.
Like-named read-outs stand apart in the source and are kept apart here. Results are given in words; binding and its absence hold for the method and conditions named. In cells and extracts the contact can be indirect. Here binding means that the protein was enriched with, or labelled near, the bait; the list need not be complete.

By UniProt entry, the sequences of proteins in these tests, tags left out. Where a name states a change or a piece, a line headed by the entry shows the natural chain unless it says otherwise.
UniProt Q12948: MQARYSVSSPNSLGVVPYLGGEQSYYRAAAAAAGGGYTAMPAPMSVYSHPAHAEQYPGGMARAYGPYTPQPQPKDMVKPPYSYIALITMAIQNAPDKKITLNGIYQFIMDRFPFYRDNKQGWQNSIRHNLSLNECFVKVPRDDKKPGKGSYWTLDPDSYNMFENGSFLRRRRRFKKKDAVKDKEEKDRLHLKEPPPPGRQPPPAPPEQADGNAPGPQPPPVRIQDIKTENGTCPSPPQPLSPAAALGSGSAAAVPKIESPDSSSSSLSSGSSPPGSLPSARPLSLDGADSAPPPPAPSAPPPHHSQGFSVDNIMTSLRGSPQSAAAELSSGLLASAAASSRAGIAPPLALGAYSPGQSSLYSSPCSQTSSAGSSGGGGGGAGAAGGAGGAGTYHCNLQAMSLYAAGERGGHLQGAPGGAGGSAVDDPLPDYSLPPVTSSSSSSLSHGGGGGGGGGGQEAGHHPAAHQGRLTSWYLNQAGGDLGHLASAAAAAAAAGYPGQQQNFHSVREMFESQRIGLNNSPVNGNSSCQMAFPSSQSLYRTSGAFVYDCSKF
UniProt P61956: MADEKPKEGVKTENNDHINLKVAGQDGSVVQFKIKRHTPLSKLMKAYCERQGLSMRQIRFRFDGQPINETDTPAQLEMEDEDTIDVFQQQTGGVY
UniProt Q13263: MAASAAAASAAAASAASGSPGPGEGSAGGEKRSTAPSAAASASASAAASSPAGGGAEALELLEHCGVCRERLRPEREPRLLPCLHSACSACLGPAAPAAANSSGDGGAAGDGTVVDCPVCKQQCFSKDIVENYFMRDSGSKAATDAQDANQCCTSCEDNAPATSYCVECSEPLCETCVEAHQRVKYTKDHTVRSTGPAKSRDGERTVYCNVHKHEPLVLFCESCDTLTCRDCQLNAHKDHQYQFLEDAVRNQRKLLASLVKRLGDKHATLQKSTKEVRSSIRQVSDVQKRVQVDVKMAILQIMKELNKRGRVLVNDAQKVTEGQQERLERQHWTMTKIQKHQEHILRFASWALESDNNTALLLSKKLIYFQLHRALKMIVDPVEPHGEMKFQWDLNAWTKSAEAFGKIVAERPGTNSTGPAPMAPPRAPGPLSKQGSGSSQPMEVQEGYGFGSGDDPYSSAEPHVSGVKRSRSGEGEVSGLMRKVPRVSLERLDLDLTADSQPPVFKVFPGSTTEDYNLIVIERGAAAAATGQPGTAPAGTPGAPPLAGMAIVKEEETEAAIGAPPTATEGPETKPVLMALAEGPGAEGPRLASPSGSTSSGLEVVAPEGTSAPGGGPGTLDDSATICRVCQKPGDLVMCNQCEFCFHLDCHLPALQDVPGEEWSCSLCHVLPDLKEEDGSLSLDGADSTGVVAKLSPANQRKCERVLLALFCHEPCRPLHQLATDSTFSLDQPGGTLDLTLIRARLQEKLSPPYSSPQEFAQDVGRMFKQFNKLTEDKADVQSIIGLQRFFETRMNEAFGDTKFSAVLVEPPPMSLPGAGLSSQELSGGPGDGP

B1: NR2F2 (protein, UniProt P24468 1-414)
chain: MAMVVSTWRDPQDEVPGSQGSQASQAPPVPGPPPGAPHTPQTPGQGGPASTPAQTAAGGQGGPGGPGSDKQQQQQHIECVVCGDKSSGKHYGQFTCEGCKSFFKRSVRRNLSYTCRANRNCPIDQHHRNQCQYCRLKKCLKVGMRREAVQRGRMPPTQPTHGQFALTNGDPLNCHSYLSGYISLLLRAEPYPTSRFGSQCMQPNNIMGIENICELAARMLFSAVEWARNIPFFPDLQITDQVALLRLTWSELFVLNAAQCSMPLHVAPLLAAAGLHASPMSADRVVAFMDHIRIFQEQVEKLKALHVDSAEYSCLKAIVLFTSDACGLSDVAHVESLQEKSQCALEEYVRSQYPNQPTRFGKLLLRLPSLRTVSSSVIEQLFFVRLVGKTPIETLIRDMLLSGSSFNWPYMAIQ

Experiments:
[1] = target: FOXC1 (human (endogenous in BT-549 and Hs578t)) (UniProt Q12948); experiment: affinity purification with mass spectrometry; RIME: BT-549 and Hs578t cells crosslinked with 2 mM DSG and 1% formaldehyde; endogenous FOXC1 precipitated with FOXC1 antibody; beads washed 10 times in RIPA buffer; on-bead tryptic digest, LC/MS-MS; two biological replicates; proteins found in the IgG control subtracted
[2] = target: FOXC1 (human (endogenous in BT-549 and Hs578t)) (UniProt Q12948); experiment: as above; remark: listed apart in the source

Molecule | binding [1] | binding [2]
SUMO2 (from UniProt P61956) | binds | –
TRIM28 (from UniProt Q13263 1-835) | binds | –
B1 | – | binds
